For this data set the following is noted: in vivo, iv, 0.3 mg/kg.

Marks after values point to notes of the source that are not given here.

As to `CC[C@@H](C(=O)Nc1ccc(C(N)=O)c(F)c1)n1cc(OC)c(-c2cc(Cl)ccc2-n2cc(C(F)(F)F)nn2)cc1=O` (single isomer, unassigned) [Example 235], the AUCnorm rat is listed as 2.16* kg · h/L.

(Values after patent US10421742B2, “Substituted oxopyridine derivatives” (priority 2015, dated 2019).)
